{"source": "PubChem BioAssay AID1259425 (University of Nebraska Medical Center, 2018)", "screen": "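Find knockdowns that reproduce the gene expression pattern seen when KSR1 is lost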 (primary screen)", "cells": "HCT116 human colon cancer cells", "reagents": "siRNA pool against human genes, 50 nM siRNA", "read-out": "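After 50 nM siRNA pool, branched-DNA assay measures six marker transcripts per well, minus blank, normalised to the geometric mean of two housekeeping transcripts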", "direction": "BNIP3L mRNA: higher = more BNIP3L transcript after knockdown; NDRG1 mRNA: higher = more NDRG1 transcript after knockdown", "note": "Here is a random part of about 14,000 deposited reagents. Not all columns of the deposit are shown. Not given: the time to read-out."}
The opening 2 records as a preview:
{"gene symbol":"SLC16A2","BNIP3L mRNA, set 1":0.152,"NDRG1 mRNA, set 1":0.33}
{"gene symbol":"CRYGC","BNIP3L mRNA, set 1":0.114,"NDRG1 mRNA, set 1":0.151}

Main list, from the start:
{"gene symbol":"SLC16A2","BNIP3L mRNA, set 1":0.152,"NDRG1 mRNA, set 1":0.33}
{"gene symbol":"CRYGC","BNIP3L mRNA, set 1":0.114,"NDRG1 mRNA, set 1":0.151}
{"gene symbol":"HPSE2","BNIP3L mRNA, set 1":0.0839,"NDRG1 mRNA, set 1":0.0569}
{"gene symbol":"VIRMA","BNIP3L mRNA, set 1":0.0718,"NDRG1 mRNA, set 1":0.085}
{"gene symbol":"PTAFR","BNIP3L mRNA, set 1":0.188,"NDRG1 mRNA, set 1":0.401}
{"gene symbol":"RCC1L","BNIP3L mRNA, set 1":0.209,"NDRG1 mRNA, set 1":0.291}
{"gene symbol":"LPIN2","BNIP3L mRNA, set 1":0.144,"NDRG1 mRNA, set 1":0.162}
{"gene symbol":"CSF2RA","BNIP3L mRNA, set 1":0.0732,"NDRG1 mRNA, set 1":0.116}
{"gene symbol":"ZNF571","BNIP3L mRNA, set 1":0.105,"NDRG1 mRNA, set 1":0.113}
{"gene symbol":"RPL19","BNIP3L mRNA, set 1":0.334,"NDRG1 mRNA, set 1":0.499}
{"gene symbol":"DYSF","BNIP3L mRNA, set 1":0.0872,"NDRG1 mRNA, set 1":0.174}
{"gene symbol":"MSRA","BNIP3L mRNA, set 1":0.0757,"NDRG1 mRNA, set 1":0.184}
{"gene symbol":"PAFAH1B2","BNIP3L mRNA, set 1":0.256,"NDRG1 mRNA, set 1":0.233}
{"gene symbol":"KHDC1","BNIP3L mRNA, set 1":0.139,"NDRG1 mRNA, set 1":0.216}
{"gene symbol":"UPF2","BNIP3L mRNA, set 1":0.0636,"NDRG1 mRNA, set 1":0.174}
{"gene symbol":"WASHC5","BNIP3L mRNA, set 1":0.103,"NDRG1 mRNA, set 1":0.17}
{"gene symbol":"GOLGB1","BNIP3L mRNA, set 1":0.0906,"NDRG1 mRNA, set 1":0.162}
{"gene symbol":"RENBP","BNIP3L mRNA, set 1":0.103,"NDRG1 mRNA, set 1":0.248}
{"gene symbol":"SLC22A3","BNIP3L mRNA, set 1":0.0786,"NDRG1 mRNA, set 1":0.318}
